In PubChem BioAssay AID2685 (National Center for Advancing Translational Sciences (NCATS), 2010):
Hit rate of the full screen: of about 320,000 compounds, about 2,100 (0.66%) were called active. This list was built around the results that the source calls inconclusive (neither active nor inactive); the mix of calls is not that of the screen. Calls come from the whole dose curve; as a rule, active = well fitted inhibition curve with a large enough effect in the signal ratio, with a control signal flat (not every such curve was filed as active); inconclusive = small, poorly fitted or top-dose-only effect, or effect the other way, or a change in a side signal; inactive = flat fitted curve, though single readings scatter; the % refers to the signal ratio. Potencies of inconclusive entries are doubtful fits and often do not repeat.

assay: qHTS Assay for Lipid Storage Modulators in Drosophila S3 Cells; conditions: BODIPY lipid droplet fluorescence, 18-24 h, cells fed with added oleic acid; lipid storage change, negative = inhibition: at 46.1 µM (top of the series) unless noted
In short: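 Drosophila S3 cells loaded with oleic acid (400 uM, as added) and compounds at several concentrations; lipid droplets imaged by 488-nm laser-scanning cytometry, 500–530 nm intensity and object ratio to cell channel. Percent activity normalized to 20 uM Triacsin C.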
% is set by controls: 0 for no effect and ±100 for the full control effect; potency is the fitted concentration of half-maximal effect.

| SMILES | lipid storage change, negative = inhibition | Potency |
| --- | --- | --- |
| CC1(C)CC(=O)C(C2C3=C(CC(C)(C)CC3=O)Oc3ccccc32)=C(O)C1 (centres undefined) | inconclusive: 1.06% |  |
| CCN1CCN(C(=O)c2nn(-c3ccc(C)cc3)c(=O)c3c2c2ccccc2n3C)CC1 | inconclusive: -3.46% |  |
| S=C(NCCc1cccc(Cl)c1)NCc1ccccc1 | inconclusive: -14.9% |  |
| Cc1ccc(NC(=O)CC2C(=O)N(Cc3ccccc3)C(=S)N2NC(=O)c2ccccc2)c(C)c1 (centres undefined) |  | inconclusive: 13 µM [activator, partial curve, poor fit] |
| CNC(=S)N1CCc2cc(OC)c(OC)cc2C1COc1ccc(F)cc1 (centres undefined) | inconclusive: -31.2% |  |
| COc1cc(C)c(C(C)C)cc1S(=O)(=O)NCCCn1ccnc1 |  | inconclusive: 29.1 µM [activator, single point] |
| Cc1cc(C(=O)CSc2nnnn2C)c(C)n1CCc1ccc(Cl)cc1 | inconclusive: 11% |  |
| C=CCNCCCCOc1ccc(Br)cc1C | inconclusive: 9.07% |  |
| CC1CCCC(NC(=O)CSc2nnc(N)s2)C1C (centres undefined) |  | inconclusive: 7.31 µM [falling, single point] |
| CCN(C(=O)CSc1nncs1)c1c(N)n(Cc2ccccc2)c(=O)[nH]c1=O | inconclusive: 8.46% |  |
| N/C(COc1ccc(C(=O)O)cc1)=N\O | inconclusive: -10.2% |  |
| COc1ccccc1CNC(=O)c1ccncc1 | inconclusive: -49.8% |  |
| COc1ccc(N=C2CCCN2CC(N)=O)cc1 | inconclusive: -5.31% |  |
| CCOc1ccc(OCC)c(NC(=O)CN2CCN(c3cccc(C)c3)C(C)C2)c1 (centres undefined) | inconclusive: 144% |  |
| Cc1ccc(S(=O)(=O)CCC(=O)OC(C)C(=O)NC2CCCCC2C)cc1 (centres undefined) | inconclusive |  |
| CCN(CC)CCN1C(=O)/C(=C\c2ccc(Cl)c([N+](=O)[O-])c2)SC1=Nc1ccc(OC)cc1 | inconclusive: -100% |  |
| CCn1c(=O)oc2cc(NC(=O)CCl)ccc21 | inconclusive: -19.9% |  |
| CCC(C)CCN1C(N(C)C)=NC[C@@H]1Cc1ccccc1 (some centres undefined) |  | inconclusive: 2.06 µM [activator, partial curve] |
| O=C(COC(=O)Cc1ccccc1F)Nc1ccc(Cl)cn1 | inconclusive: -14.3% |  |
| O=C(NC(CC(=O)N1CCCC(C(F)(F)F)C1)c1ccccc1)c1ccccc1Cl (centres undefined) | inconclusive: -80.1% |  |
| Cc1[nH]n(-c2ccccc2)c(=O)c1C(=O)c1ccc(Cl)cc1 | inactive: -5.87% |  |
| Cc1cccc(SCC(=O)Nc2ccc3c(c2)OCCO3)c1 | inconclusive: 10.2% |  |
| CC1CCCC(NC(=O)C2CCCN2S(=O)(=O)c2cccc3nsnc23)C1C (centres undefined) |  | inconclusive: 14.6 µM [activator, single point] |
| CCS(=O)(=O)N1CCN(C(=O)c2ccco2)CC1 | inconclusive: -11.7% |  |
| COc1ccc(CCNC(=O)CSCc2n[nH]c(=O)[nH]2)cc1OC |  | inconclusive: 16.4 µM [falling, single point] |
| CC1(C)NC(=O)N(CCCCOc2ccc(Br)cc2Cl)C1=O |  | inconclusive: 0.164 µM [activator, full curve, poor fit] |
| CCc1nnc(NC(=O)CSc2nnc(-c3cc4ccccc4cc3O)n2CCOC)s1 | inconclusive: 35.1% |  |

| SMILES | lipid storage change, negative = inhibition | Potency |
| --- | --- | --- |
| COCCN(CCOC)C(=O)c1cc2c(=O)n3ccccc3nc2s1 |  | inconclusive: 0.0052 µM [activator, full curve, poor fit] |
| O=C1CN(C(=O)CSc2nncn2-c2ccccc2)c2ccccc2N1 | inconclusive: 8.71% |  |
| CCOC(=O)CSc1ccc(S(=O)(=O)N(C)C2CCCCC2)cc1[N+](=O)[O-] |  | active: 25.9 µM |
| CC(C)C(=O)Nc1cccnc1 | inconclusive: -21% |  |
| Cc1ccc(N2C(=O)C3C4CCC(O4)C3C2=O)c(OC(F)F)c1 (centres undefined) | inconclusive: 13.3% |  |
| CN(CCc1ccccn1)Cc1ccc(Cl)c(Cl)c1 | inactive: 7.09% |  |
| O=[N+]([O-])c1cc([N+](=O)[O-])c(Oc2cc(F)cc(F)c2)cc1NN1CCCCC1 | inconclusive: -35.8% |  |
| COc1ccc(CCNc2ccc(C(CC(N)=O)NC(=O)Cc3cccc4ccccc34)cc2[N+](=O)[O-])cc1 (centres undefined) | inconclusive: 9.21% |  |
| COc1ccc(OCCCC(=O)Nc2cc([N+](=O)[O-])ccc2C)cc1 |  | active: 14.6 µM |
| C=CCSc1nsc(NC(=O)Nc2cccc(C(C)=O)c2)n1 | inconclusive: -96.2% |  |
| Cn1nc(C(=O)NC2CCC(O)CC2)c2ccccc2c1=O (centres undefined) | inconclusive: 14.6% |  |
| CC(CCc1ccccc1)N(C)CC(O)c1cccc([N+](=O)[O-])c1 (centres undefined) | inconclusive: 22.9% |  |
| COc1cc(CCc2ccc3c(c2)OCO3)oc(=O)c1 |  | inconclusive: 29.1 µM [falling, single point] |
| CCc1cc(=O)oc2cc(OCC(=O)N3CCC(C(=O)O)CC3)ccc12 | inconclusive: 14.7% |  |
| O=C(Nc1cnn(Cc2ccc(Cl)c(Cl)c2)c1)C12CC3CC(CC(C3)C1)C2 |  | inconclusive: 29.1 µM [cytotoxic, single point] |
| CN1CCN(S(=O)(=O)c2ccc(N(C)Cc3cccs3)nc2)CC1 |  | inconclusive: 13 µM [activator, partial curve] |
| COc1ccccc1CCNC(=O)c1ccc(OC)c(OC2CCN(C(C)C)CC2)c1 |  | inconclusive: 1.84 µM [activator, full curve, poor fit] |
| O=C(COc1ccc(S(=O)(=O)N2CCCC2)cc1Cl)NC1CCCC1 |  | inconclusive: 18.4 µM [activator, partial curve] |
| CC(C)C(C(=O)NCc1ccco1)N(Cc1ccco1)C(=O)CNS(=O)(=O)c1ccccc1 (centres undefined) | inconclusive: 71.1% |  |
| Cc1ccc(S(=O)(=O)N(C)/N=C2/C(=O)N(CC(=O)O)c3ccccc32)cc1 | inconclusive: -3.41% |  |
| Cc1ccc(S(=O)(=O)NCCCNS(=O)(=O)c2ccccc2[N+](=O)[O-])cc1 |  | inconclusive: 29.1 µM [activator, single point] |
| CN1C(=S)SC(/[N+]([O-])=C\c2ccc(Cl)cc2)C1(C)C (centres undefined) | inconclusive: -29.6% |  |
| CSc1ccc(Cl)c(C(=O)Nc2ccc(N3CCOCC3)cc2)c1 | inconclusive: 23.8% [at 9.22 µM] |  |
| CC1CCCN(C(=O)CN2C(=O)NC3(CCCCC3C)C2=O)C1 (centres undefined) | inconclusive: 24.3% |  |
| COCCN1C(=O)N(c2cccc(OC)c2)C(=O)C1CC(=O)Nc1cccc(F)c1 (centres undefined) |  | inconclusive: 5.17 µM [activator, full curve] |
| Cc1sc(NC(=O)CSc2nnc(-c3ccc(F)cc3)o2)c(C#N)c1C |  | inconclusive: 2.91 µM [activator, full curve] |
| O=C(CCN1C(=O)C2C3C=CC(C3)C2C1=O)NCc1cccnc1 (centres undefined) | inconclusive: -1.17% |  |

Retrieved by compound from the list above:

| SMILES | lipid storage change, negative = inhibition | Potency |
| --- | --- | --- |
| O=[N+]([O-])c1cc([N+](=O)[O-])c(Oc2cc(F)cc(F)c2)cc1NN1CCCCC1 | inconclusive: -35.8% |  |
| O=C(Nc1cnn(Cc2ccc(Cl)c(Cl)c2)c1)C12CC3CC(CC(C3)C1)C2 |  | inconclusive: 29.1 µM [cytotoxic, single point] |
| C=CCSc1nsc(NC(=O)Nc2cccc(C(C)=O)c2)n1 | inconclusive: -96.2% |  |
| O=C(COc1ccc(S(=O)(=O)N2CCCC2)cc1Cl)NC1CCCC1 |  | inconclusive: 18.4 µM [activator, partial curve] |
| CC(C)C(C(=O)NCc1ccco1)N(Cc1ccco1)C(=O)CNS(=O)(=O)c1ccccc1 (centres undefined) | inconclusive: 71.1% |  |

The list goes on:

| SMILES | lipid storage change, negative = inhibition | Potency |
| --- | --- | --- |
| O=C(CSc1nncn1-c1ccccc1)Nc1ccccc1 |  | inconclusive: 29.1 µM [activator, single point] |
| Cc1ccc(S(=O)(=O)N(CCC(=O)NCc2ccc(S(N)(=O)=O)cc2)c2ccccc2)cc1 | inconclusive: 7.34% |  |
| COc1cccc(C(=O)N2CCN(Cc3ccccc3Br)CC2)c1 | inconclusive: 6.17% |  |
| CN(C)C(=O)c1cc(-c2ccccc2)no1 | inconclusive: -15.7% |  |
| N#Cc1ccccc1OCCCNC1CCCC1 | inconclusive: -6.39% [at 9.22 µM] |  |
| CC(=O)Nc1ccc(C(=O)CSc2cc(C)c3cccc(C)c3n2)cc1 | inconclusive: -30.3% |  |
| COc1cccc(S(=O)(=O)Nc2cccnc2)c1 | inconclusive: 9.28% |  |
| CC(C)Cn1cnc2c1c(=O)n(CC(O)c1ccccc1)c(=O)n2CC(C)C (centres undefined) |  | inconclusive: 0.58 µM [activator, single point] |
| O=C(CSc1nnc(Nc2ccccc2)s1)NCc1cccs1 |  | inconclusive: 10.3 µM [falling, partial curve] |
| CC(C)c1ccc2c(c1)C(=O)NC(C)(C)C2 |  | inconclusive: 2.06 µM [falling, partial curve] |
| Cc1cccc(CSc2nc3c(c(=O)[nH]2)CCCC3)c1 | inconclusive: 9.86% |  |
| COc1ccccc1C(=O)NCCC(=O)NCC(c1ccco1)N1CCCCC1 (centres undefined) | inconclusive |  |
| Cc1c(O)ccc2c(CN3CCN(Cc4ccccc4)CC3)cc(=O)oc12 | inconclusive: 6.32% |  |
| Oc1[nH]c2ccccc2c1N=Nc1ccc(C(F)(F)F)cn1 | inactive: -3.49% |  |
| Cc1ccc(C)c(OCCCNC2CCCC2)c1C | inconclusive: -28.4% |  |
| Cn1c(=O)c2c(nc(CN3CCC(C(N)=O)CC3)n2Cc2ccccc2F)n(C)c1=O |  | inconclusive: 0.0058 µM [falling, full curve, poor fit] |
| COC(=O)[C@H](Cc1ccccc1)NC(=O)NCc1ccccc1 | inconclusive: -14.7% |  |
| C=CCn1c(COc2ccc(F)cc2)nnc1SCC(=O)N1CC(=O)Nc2ccccc21 | inconclusive: -9.56% |  |
| O=C1CN(C(=O)CSc2nc3c(cnn3-c3ccccc3)c(=O)[nH]2)c2ccccc2N1 | inconclusive: 18.3% |  |
| CN1/C(=C\C=N\NC(=O)c2cccnc2)C(C)(C)c2ccccc21 | inconclusive: -87.3% |  |
| CSc1cccc(NC(=O)CN(C)S(=O)(=O)c2ccc(F)cc2)c1 |  | inconclusive: 6.51 µM [activator, single point] |
| COc1c(Br)cc(Br)cc1C(=O)O |  | active: 20.6 µM |
| Cc1ccc(S(=O)(=O)N2CCOCC2)cc1C(=O)Nc1cccc(S(=O)(=O)N2CCCC2)c1 | inconclusive: -40.8% |  |
| COCCNC(=O)/C(C#N)=C/c1cc(C)n(-c2ccc(C)cc2)c1C | inconclusive: 6.89% |  |
| O=C(CCS(=O)(=O)c1cc2c(cc1Cl)NC(=O)CO2)NCc1ccc(F)cc1 |  | inconclusive: 0.461 µM [activator, full curve, poor fit] |
